No constants are given. Whether binding was seen depends on the method and setting. In cells and extracts the contact can be indirect. A yes stands for co-enrichment or nearness to the bait. Other partners may have been found. For part of these data: A no says only that the protein was not detected with the bait.
Legend:
[1] = molecular target: pyruvate kinase muscle 2 (PKM2), mouse (mouse (endogenous in peritoneal macrophages)) (UniProt P52480); experiment: affinity purification with mass spectrometry; WT murine peritoneal macrophages treated with 20 ug/ml oxLDL for 3 h; 1 mg lysate protein with 2 ug anti-PKM2 IgG at 4 C overnight, A/G agarose beads, SDS-PAGE, gel lanes to mass spectrometry; blank gel and control IgG IP as negative controls
[2] = molecular target: pyruvate kinase muscle 2 (PKM2), mouse (mouse (endogenous in peritoneal macrophages)) (UniProt P52480); experiment: as above; remark: listed apart in the source
[3] = molecular target: pyruvate kinase muscle 2 (PKM2), mouse (mouse (endogenous in peritoneal macrophages)) (UniProt P52480); experiment: affinity purification with mass spectrometry; control WT murine peritoneal macrophages without oxLDL treatment; anti-PKM2 IP as in the treated samples, gel lanes to mass spectrometry

Chains of the proteins cited; added tags and fusions are not shown. Residues count along the entry.
UniProt P52480: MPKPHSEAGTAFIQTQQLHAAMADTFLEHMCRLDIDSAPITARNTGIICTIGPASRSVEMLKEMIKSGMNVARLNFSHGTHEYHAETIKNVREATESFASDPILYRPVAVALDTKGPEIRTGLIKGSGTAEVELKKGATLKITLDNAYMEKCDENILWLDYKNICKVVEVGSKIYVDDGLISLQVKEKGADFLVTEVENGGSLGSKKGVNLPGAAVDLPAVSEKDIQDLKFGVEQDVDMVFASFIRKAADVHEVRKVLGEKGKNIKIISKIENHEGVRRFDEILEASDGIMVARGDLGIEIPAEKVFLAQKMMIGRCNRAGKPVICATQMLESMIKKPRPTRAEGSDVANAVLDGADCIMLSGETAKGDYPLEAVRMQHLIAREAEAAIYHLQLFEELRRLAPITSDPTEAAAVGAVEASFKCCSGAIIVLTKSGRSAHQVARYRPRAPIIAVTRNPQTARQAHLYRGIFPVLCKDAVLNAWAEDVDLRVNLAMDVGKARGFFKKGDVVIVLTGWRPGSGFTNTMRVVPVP
UniProt P38647, residues 47-679: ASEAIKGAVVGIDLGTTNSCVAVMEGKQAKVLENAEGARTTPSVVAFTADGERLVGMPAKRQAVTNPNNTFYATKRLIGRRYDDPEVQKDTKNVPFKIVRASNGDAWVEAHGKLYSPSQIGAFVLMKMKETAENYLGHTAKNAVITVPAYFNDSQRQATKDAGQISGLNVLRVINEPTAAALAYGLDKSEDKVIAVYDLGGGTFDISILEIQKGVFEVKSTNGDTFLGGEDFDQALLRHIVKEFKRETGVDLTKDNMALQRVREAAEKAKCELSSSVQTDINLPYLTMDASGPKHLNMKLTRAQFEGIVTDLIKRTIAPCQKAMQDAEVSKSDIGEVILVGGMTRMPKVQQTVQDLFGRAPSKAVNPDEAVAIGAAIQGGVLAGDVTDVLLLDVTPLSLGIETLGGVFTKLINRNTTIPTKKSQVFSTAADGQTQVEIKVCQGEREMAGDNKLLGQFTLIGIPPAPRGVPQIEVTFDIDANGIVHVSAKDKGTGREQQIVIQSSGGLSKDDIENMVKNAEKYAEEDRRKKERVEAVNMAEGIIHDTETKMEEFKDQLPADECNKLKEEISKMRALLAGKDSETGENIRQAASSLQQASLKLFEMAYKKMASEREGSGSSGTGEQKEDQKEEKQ

| binding [1] | binding [2] | Molecule | binding [3] |
| --- | --- | --- | --- |
| binds | – | GRP75, mouse (from UniProt P38647 47-679) | – |
| – | binds | UQCRC1, a subunit of ETC complex III, mouse (protein, UniProt Q9CZ13 35-480) TATFAQALQSVPETQVSILDNGLRVASEQSSHATCTVGVWIDAGSRYETEKNNGAGYFLEHLAFKGTKNRPGNALEKEVESIGAHLNAYSTREHTAYLIKALSKDLPKVVELLADIVQNSSLEDSQIEKERDVILREMQENDASMQNVVFDYLHATAFQGTPLAQAVEGPSENVRRLSRTDLTDYLNRHYKAPRMVLAAAGGVEHQQLLDLAQKHLSSVSRVYEEDAVPGLTPCRFTGSEIRHRDDALPLAHVAIAVEGPGWANPDNVTLQVANAIIGHYDCTYGGGVHLSSPLASVAVANKLCQSFQTFNISYSDTGLLGAHFVCDAMSIDDMVFFLQGQWMRLCTSATESEVTRGKNILRNALVSHLDGTTPVCEDIGRSLLTYGRRIPLAEWESRIQEVDAQMLRDICSKYFYDQCPAVAGYGPIEQLPDYNRIRSGMFWLRF | no binding (only cells without oxLDL treatment) |

From publication PMC12142535
